The values that follow come from the supplement of paper PMC3545927.

By UniProt entry, the sequences of proteins in these tests, tags left out.
furin, P09958, UniProt P09958, whole entry: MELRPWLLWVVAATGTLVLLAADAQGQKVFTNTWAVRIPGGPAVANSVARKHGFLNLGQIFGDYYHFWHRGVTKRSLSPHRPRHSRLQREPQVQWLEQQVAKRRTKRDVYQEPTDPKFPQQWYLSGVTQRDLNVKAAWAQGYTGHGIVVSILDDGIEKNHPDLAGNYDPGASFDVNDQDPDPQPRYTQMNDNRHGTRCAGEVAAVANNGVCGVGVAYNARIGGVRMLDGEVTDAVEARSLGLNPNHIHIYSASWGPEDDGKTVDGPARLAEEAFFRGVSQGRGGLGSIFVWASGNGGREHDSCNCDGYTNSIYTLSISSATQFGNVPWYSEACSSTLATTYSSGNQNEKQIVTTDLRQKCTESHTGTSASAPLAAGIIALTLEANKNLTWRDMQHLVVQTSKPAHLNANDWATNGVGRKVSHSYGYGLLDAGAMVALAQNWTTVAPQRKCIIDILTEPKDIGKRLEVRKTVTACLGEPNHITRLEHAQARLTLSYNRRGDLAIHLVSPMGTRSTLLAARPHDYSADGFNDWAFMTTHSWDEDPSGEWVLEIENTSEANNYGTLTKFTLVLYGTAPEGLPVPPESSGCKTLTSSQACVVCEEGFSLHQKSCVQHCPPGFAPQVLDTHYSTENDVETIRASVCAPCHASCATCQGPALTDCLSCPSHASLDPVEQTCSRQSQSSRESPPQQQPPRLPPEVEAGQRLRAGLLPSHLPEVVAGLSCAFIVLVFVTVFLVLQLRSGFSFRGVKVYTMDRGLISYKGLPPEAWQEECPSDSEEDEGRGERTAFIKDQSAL

The experiment addresses furin, P09958. The experiment is described as follows: furin cleavage Z-score vs untreated control; higher = more cleavage, active = 3.5 or more, inactive = 1 or less, 8 variable residues between constant flanks. How it is done: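 Multiplexed peptide-cDNA fusion cleavage assay. 8-mer variable peptides flanked by constant Cys-Ala (N-term) and Ala-Gly-Asn-Ala-Ser-Ala-Ser-Ala (C-term) and conjugated to a cDNA oligonucleotide were bead-immobilised via the N-terminus. They were treated with purified furin at a 1:10 enzyme:substrate ratio in 50 mM HEPES pH 7.5, 1 mM CaCl2, 100 mM NaCl for 7.5, 15 or 30 min. Released cDNA was counted by next-generation sequencing, and log counts versus no-furin controls were lowess-adjusted and converted to robust Z-scores.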

Only a part is listed here, and it is no random draw.

B1: FS-2349 (peptide)
chain: CARKRRMQEEAGNASASA
As for B1, the “furin cleavage Z-score” value by setting is: (7.5 min) 1.31; (15 min) active: 4.08; (30 min) 2.78.

B2: FS-2425 (peptide)
chain: CARKNRQIQDAGNASASA
With B2, the “furin cleavage Z-score” value is 1.86 (7.5 min), 2.84 (15 min) and 1.09 (30 min).

B3: FS-2125 (peptide)
chain: CALSKRDTGAAGNASASA
Turning to B3, the “furin cleavage Z-score” value came to 3.27 (7.5 min), 2.39 (15 min) and 1.16 (30 min).

B4: HC1716 (peptide)
chain: CAMEGCSQHLAGNASASA
On to B4, for which the “furin cleavage Z-score” value by setting is: (7.5 min) 1.23; (15 min) inactive: 0.47; (30 min) inactive: 0.552.

B5: HC1146 (peptide)
chain: CAPCSGSWLRAGNASASA
As to B5, the “furin cleavage Z-score” value worked out at 2.4 (7.5 min), 2.67 (15 min) and 2.29 (30 min).

B6: HC1676 (peptide)
chain: CAGEECSQHLAGNASASA
Take B6: the “furin cleavage Z-score” value (7.5 min) is inactive: 0.0385, the “furin cleavage Z-score” value (15 min) was 1.42 and the “furin cleavage Z-score” value (30 min) was inactive: -0.903.

B7: HC1410 (peptide)
chain: CAKANLLSVEAGNASASA
Regarding B7, the “furin cleavage Z-score” value is, setting by setting: (7.5 min) inactive: -0.514; (15 min) inactive: -0.264; (30 min) inactive: -1.3.

B8: FS-2280 (peptide)
chain: CARLRRSLPPAGNASASA
For the sequence B8, the “furin cleavage Z-score” value by setting is: (7.5 min) active: 7.15; (15 min) active: 6.52; (30 min) active: 7.39.

B9: FS-483 (peptide)
chain: CAQSARKMRLAGNASASA
Regarding B9, the “furin cleavage Z-score” value runs as follows: (7.5 min) 1.38; (15 min) 1.46; (30 min) 1.3.

B10: HC4 (peptide)
chain: CAMEELSQHLAGNASASA
Turning to B10, the “furin cleavage Z-score” value came out at 1.85 (7.5 min), 1.23 (15 min) and 1.84 (30 min).

B11: FS-1945 (peptide)
chain: CARDKRSALQAGNASASA
Take B11: the “furin cleavage Z-score” value was active: 8.56 (7.5 min), active: 10.4 (15 min) and active: 8.42 (30 min).

B12: FS-2475 (peptide)
chain: CAVRKRNVESAGNASASA
As for B12, the “furin cleavage Z-score” value reads like this: (7.5 min) 1.31; (15 min) 1.67; (30 min) 1.25.

B13: HC2475 (peptide)
chain: CAHTPCSAHLAGNASASA
For the sequence B13, the “furin cleavage Z-score” value by setting is: (7.5 min) inactive: -0.788; (15 min) inactive: -1.31; (30 min) inactive: -0.643.

B14: HC1747 (peptide)
chain: CAMEECSQFLAGNASASA
With B14, the “furin cleavage Z-score” value by setting is: (7.5 min) 2.24; (15 min) 1.37; (30 min) 1.18.

B15: FS-583 (peptide)
chain: CACRRRRRRKAGNASASA
As to B15, the “furin cleavage Z-score” value is active: 7.53 (7.5 min), active: 8.14 (15 min) and active: 6.13 (30 min).

B16: FS-1241 (peptide)
chain: CAPKGRGKRRAGNASASA
For the sequence B16, the “furin cleavage Z-score” value (7.5 min) worked out at 3.48, the “furin cleavage Z-score” value (15 min) turned out to be 3.42 and the “furin cleavage Z-score” value (30 min) is active: 4.16.

B17: FS-1061 (peptide)
chain: CARGGRWRRSAGNASASA
With B17, the “furin cleavage Z-score” value by setting is: (7.5 min) 3.18; (15 min) 1.83; (30 min) 1.47.

B18: FS-640 (peptide)
chain: CAAHRRNKKDAGNASASA
With B18, the “furin cleavage Z-score” value amounted to 2.22 (7.5 min), 1.01 (15 min) and 2.02 (30 min).

B19: FS-2171 (peptide)
chain: CARQPRLVGAAGNASASA
In the case of B19, the “furin cleavage Z-score” value reads like this: (7.5 min) inactive: -0.691; (15 min) inactive: -0.656; (30 min) inactive: -0.39.

B20: FS-2218 (peptide)
chain: CARKSRGTSTAGNASASA
Take B20: the “furin cleavage Z-score” value is, setting by setting: (7.5 min) 1.5; (15 min) 2.63; (30 min) 2.68.

B21: HC61 (peptide)
chain: CATTPCAGSWAGNASASA
Take B21: the “furin cleavage Z-score” value runs as follows: (7.5 min) inactive: -1.21; (15 min) inactive: 0.988; (30 min) 1.04.

B22: FS-651 (peptide)
chain: CAFHIRRKRYAGNASASA
Take B22: the “furin cleavage Z-score” value by setting is: (7.5 min) active: 11.7; (15 min) active: 12.5; (30 min) active: 10.9.

B23: FU9 (peptide)
chain: CAFHIRRKRYAGNASASA
Turning to B23, the “furin cleavage Z-score” value is, setting by setting: (7.5 min) active: 11; (15 min) active: 12.5; (30 min) active: 11.3.

B24: FS-2229 (peptide)
chain: CARRKRLDWCAGNASASA
With B24, the “furin cleavage Z-score” value came out at 2.36 (7.5 min), 2.5 (15 min) and 3.01 (30 min).

B25: FS-901 (peptide)
chain: CAYNCRCKRGAGNASASA
With B25, the “furin cleavage Z-score” value worked out at 2.32 (7.5 min), 2.87 (15 min) and 3.05 (30 min).

B26: FS-1424 (peptide)
chain: CATMSRLARTAGNASASA
On to B26, for which the “furin cleavage Z-score” value runs as follows: (7.5 min) 2.67; (15 min) 3.44; (30 min) 2.64.

B27: FS-2419 (peptide)
chain: CARGRRSEDQAGNASASA
In the case of B27, the “furin cleavage Z-score” value (7.5 min) came to 3.38, the “furin cleavage Z-score” value (15 min) is 2.69 and the “furin cleavage Z-score” value (30 min) came out at 1.78.

B28: FS-133 (peptide)
chain: CAHRCRHKRWAGNASASA
As for B28, the “furin cleavage Z-score” value was active: 5.93 (7.5 min), active: 10.1 (15 min) and active: 8.03 (30 min).

B29: HC2434 (peptide)
chain: CAKREVPCHRAGNASASA
As to B29, the “furin cleavage Z-score” value reads like this: (7.5 min) 2.19; (15 min) 1.6; (30 min) 3.27.

B30: FS-2114 (peptide)
chain: CAVSKRHVRIAGNASASA
As to B30, the “furin cleavage Z-score” value (7.5 min) is inactive: -0.647, the “furin cleavage Z-score” value (15 min) came to 1.47 and the “furin cleavage Z-score” value (30 min) came to 2.71.

B31: HC22 (peptide)
chain: CAMEECGQHLAGNASASA
In the case of B31, the “furin cleavage Z-score” value (7.5 min) was inactive: 0.622, the “furin cleavage Z-score” value (15 min) is inactive: 0.186 and the “furin cleavage Z-score” value (30 min) is 1.5.

B32: HC182 (peptide)
chain: CARLGVRATRAGNASASA
On to B32, for which the “furin cleavage Z-score” value by setting is: (7.5 min) 2.63; (15 min) 1.61; (30 min) 1.26.

B33: FS-2710 (peptide)
chain: CARLPRSNSLAGNASASA
Take B33: the “furin cleavage Z-score” value is 1.22 (7.5 min), 1.87 (15 min) and 2.28 (30 min).

B34: FS-1011 (peptide)
chain: CAHSSRLKRLAGNASASA
Consider B34, for which the “furin cleavage Z-score” value is active: 6.44 (7.5 min), active: 7.96 (15 min) and active: 7.66 (30 min).

B35: FS-2647 (peptide)
chain: CARARRGVEVAGNASASA
For B35, the “furin cleavage Z-score” value is, setting by setting: (7.5 min) active: 4.52; (15 min) active: 5.87; (30 min) active: 6.09.

B36: FS-726 (peptide)
chain: CATGARGLRSAGNASASA
For the sequence B36, the “furin cleavage Z-score” value stood at 1.01 (7.5 min), 1.84 (15 min) and 2.33 (30 min).

B37: FS-1047 (peptide)
chain: CAPKGRPKRAAGNASASA
Turning to B37, the “furin cleavage Z-score” value reads like this: (7.5 min) active: 11.3; (15 min) active: 13.3; (30 min) active: 9.54.

B38: FS-1599 (peptide)
chain: CALMRRRRRKAGNASASA
Consider B38, for which the “furin cleavage Z-score” value (7.5 min) was active: 8.11, the “furin cleavage Z-score” value (15 min) was active: 10.6 and the “furin cleavage Z-score” value (30 min) was active: 8.59.
